# Reference: ChEMBL document CHEMBL4316593 (Eur J Med Chem, 2019)
# The source gives many values for each of these; only a part stands here.
# What was measured:
# Type in all cases: cell-based
# Conditions in all cases: U-87MG ATCC
# [1] = Inhibition of RTK/PI3K/AKT/mTOR signaling in human U87 cells assessed as down regulation of CHERP gene expression at cytotoxic IC50 measured after 48 hrs relative to control
# [2] = Inhibition of RTK/PI3K/AKT/mTOR signaling in human U87 cells assessed as down regulation of RECQL gene expression at cytotoxic IC50 measured after 48 hrs relative to control
# [3] = Inhibition of RTK/PI3K/AKT/mTOR signaling in human U87 cells assessed as up regulation of TMED4 gene expression at cytotoxic IC50 measured after 48 hrs relative to control
# [4] = Inhibition of RTK/PI3K/AKT/mTOR signaling in human U87 cells assessed as down regulation of EIF2AK4 gene expression at cytotoxic IC50 measured after 48 hrs relative to control
# [5] = Inhibition of RTK/PI3K/AKT/mTOR signaling in human U87 cells assessed as up regulation of VMA21, vacuolar ATPase assembly factor gene expression at cytotoxic IC50 measured after 48 hrs relative to control
# [6] = Inhibition of RTK/PI3K/AKT/mTOR signaling in human U87 cells assessed as down regulation of ZC3H13 gene expression at cytotoxic IC50 measured after 48 hrs relative to control
# [7] = Inhibition of RTK/PI3K/AKT/mTOR signaling in human U87 cells assessed as down regulation of TOPBP1 gene expression at cytotoxic IC50 measured after 48 hrs relative to control
# [8] = Inhibition of RTK/PI3K/AKT/mTOR signaling in human U87 cells assessed as down regulation of SUSD6 gene expression at cytotoxic IC50 measured after 48 hrs relative to control
# [9] = Inhibition of RTK/PI3K/AKT/mTOR signaling in human U87 cells assessed as down regulation of ANKRD49 gene expression at cytotoxic IC50 measured after 48 hrs relative to control
# [10] = Inhibition of RTK/PI3K/AKT/mTOR signaling in human U87 cells assessed as up regulation of SEC63 homolog, protein translocation regulator gene expression at cytotoxic IC50 measured after 48 hrs relative to control
# [11] = Inhibition of RTK/PI3K/AKT/mTOR signaling in human U87 cells assessed as down regulation of NMU gene expression at cytotoxic IC50 measured after 48 hrs relative to control
# [12] = Inhibition of RTK/PI3K/AKT/mTOR signaling in human U87 cells assessed as down regulation of SLF1 gene expression at cytotoxic IC50 measured after 48 hrs relative to control
# [13] = Inhibition of RTK/PI3K/AKT/mTOR signaling in human U87 cells assessed as up regulation of UCA1 gene expression at cytotoxic IC50 measured after 48 hrs relative to control
# [14] = Inhibition of RTK/PI3K/AKT/mTOR signaling in human U87 cells assessed as down regulation of PPP1R13B gene expression at cytotoxic IC50 measured after 48 hrs relative to control
# [15] = Inhibition of RTK/PI3K/AKT/mTOR signaling in human U87 cells assessed as down regulation of SON gene expression at cytotoxic IC50 measured after 48 hrs relative to control
# [16] = Inhibition of RTK/PI3K/AKT/mTOR signaling in human U87 cells assessed as down regulation of SPAG1 gene expression at cytotoxic IC50 measured after 48 hrs relative to control
# [17] = Inhibition of RTK/PI3K/AKT/mTOR signaling in human U87 cells assessed as down regulation of CDC20 gene expression at cytotoxic IC50 measured after 48 hrs relative to control
# [18] = Inhibition of RTK/PI3K/AKT/mTOR signaling in human U87 cells assessed as up regulation of NEIL2 gene expression at cytotoxic IC50 measured after 48 hrs relative to control
# [19] = Inhibition of RTK/PI3K/AKT/mTOR signaling in human U87 cells assessed as down regulation of OCRL gene expression at cytotoxic IC50 measured after 48 hrs relative to control
# [20] = Inhibition of RTK/PI3K/AKT/mTOR signaling in human U87 cells assessed as up regulation of cytochrome b gene expression at cytotoxic IC50 measured after 48 hrs relative to control
# [21] = Inhibition of RTK/PI3K/AKT/mTOR signaling in human U87 cells assessed as down regulation of TRIM21 gene expression at cytotoxic IC50 measured after 48 hrs relative to control
# [22] = Inhibition of RTK/PI3K/AKT/mTOR signaling in human U87 cells assessed as down regulation of PPP2R1B gene expression at cytotoxic IC50 measured after 48 hrs relative to control
# [23] = Inhibition of RTK/PI3K/AKT/mTOR signaling in human U87 cells assessed as up regulation of RNA polymerase I subunit B gene expression at cytotoxic IC50 measured after 48 hrs relative to control
# [24] = Inhibition of RTK/PI3K/AKT/mTOR signaling in human U87 cells assessed as down regulation of AHR gene expression at cytotoxic IC50 measured after 48 hrs relative to control
# [25] = Inhibition of RTK/PI3K/AKT/mTOR signaling in human U87 cells assessed as down regulation of PKMYT1 gene expression at cytotoxic IC50 measured after 48 hrs relative to control
# [26] = Inhibition of RTK/PI3K/AKT/mTOR signaling in human U87 cells assessed as down regulation of WNK1 gene expression at cytotoxic IC50 measured after 48 hrs relative to control
# [27] = Inhibition of RTK/PI3K/AKT/mTOR signaling in human U87 cells assessed as down regulation of GXYLT1 gene expression at cytotoxic IC50 measured after 48 hrs relative to control
# [28] = Inhibition of RTK/PI3K/AKT/mTOR signaling in human U87 cells assessed as up regulation of 5'-nucleotidase domain containing 2 gene expression at cytotoxic IC50 measured after 48 hrs relative to control
# [29] = Inhibition of RTK/PI3K/AKT/mTOR signaling in human U87 cells assessed as up regulation of ATPase phospholipid transporting 8B3 gene expression at cytotoxic IC50 measured after 48 hrs relative to control
# [30] = Inhibition of RTK/PI3K/AKT/mTOR signaling in human U87 cells assessed as down regulation of RAD1 gene expression at cytotoxic IC50 measured after 48 hrs relative to control
# [31] = Inhibition of RTK/PI3K/AKT/mTOR signaling in human U87 cells assessed as down regulation of USP53 gene expression at cytotoxic IC50 measured after 48 hrs relative to control
# [32] = Inhibition of RTK/PI3K/AKT/mTOR signaling in human U87 cells assessed as up regulation of glutamate ionotropic receptor NMDA type subunit 2D gene expression at cytotoxic IC50 measured after 48 hrs relative to control
compound,measurement,setting,value
CC(=O)C(=NNc1ccccc1C#N)C(C)=O,log2FC,[1],-0.526
same,log2FC,[2],-1.88
same,log2FC,[3],0.491
same,log2FC,[4],-0.433
same,log2FC,[5],0.662
same,log2FC,[6],-0.63
same,log2FC,[7],-0.67
same,log2FC,[8],-1.39
same,log2FC,[9],-1.18
same,log2FC,[10],0.999
same,log2FC,[11],-1.26
same,log2FC,[12],-1.55
same,log2FC,[13],2.79
same,log2FC,[14],-0.97
same,log2FC,[15],-0.43
same,log2FC,[16],-3.17
same,log2FC,[17],-0.538
same,log2FC,[18],0.608
same,log2FC,[19],-0.91
same,log2FC,[20],0.891
same,log2FC,[21],-1.02
same,log2FC,[22],-1.31
same,log2FC,[23],0.846
same,log2FC,[24],-1.09
same,log2FC,[25],-1.09
same,log2FC,[26],-0.791
same,log2FC,[27],-1.02
same,log2FC,[28],0.986
same,log2FC,[29],1.41
same,log2FC,[30],-0.985
same,log2FC,[31],-1
same,log2FC,[32],0.72
